Experimental data as given in patent US20240200081A1, “NUCLEIC ACID MOLECULE CONJUGATE HAVING PROLONGED IN VIVO HALF-LIFE” (APTACURE THERAPEUTICS LIMITED, published 2024).
The comparison behind a weaker result is the experiment's own reference, which may not be listed here. Tags and fusion partners may be left off the protein sequences shown.

Molecular target: T1, sclerostin (Homo sapiens) (UniProt Q9BQB4)
T1 sequence (limits assumed): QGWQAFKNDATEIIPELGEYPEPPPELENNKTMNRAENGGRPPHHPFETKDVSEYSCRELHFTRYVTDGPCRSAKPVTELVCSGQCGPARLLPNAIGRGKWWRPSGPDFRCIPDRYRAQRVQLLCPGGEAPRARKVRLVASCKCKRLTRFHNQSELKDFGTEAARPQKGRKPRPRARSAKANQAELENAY
Test: ELONA
Conditions: low binding, curve could not be fitted, purified recombinant protein, protein details: His6 (SELEX protein), label: biotin (ELONA), single-stranded DNA, variant of aptscl 3

## TGTTGTACATCGCCTTACGCACGTG [aptscl 3-6]
  binding result: binds more weakly
